Some of the results follow. The data scatter; read single values as rough.

Protein sequences, listed by entry. Tags and fused reporters are not part of them. Lines headed by an entry give the natural chain unless they say otherwise; changes in a name come on top. Residues count along the entry.
UniProt P46100: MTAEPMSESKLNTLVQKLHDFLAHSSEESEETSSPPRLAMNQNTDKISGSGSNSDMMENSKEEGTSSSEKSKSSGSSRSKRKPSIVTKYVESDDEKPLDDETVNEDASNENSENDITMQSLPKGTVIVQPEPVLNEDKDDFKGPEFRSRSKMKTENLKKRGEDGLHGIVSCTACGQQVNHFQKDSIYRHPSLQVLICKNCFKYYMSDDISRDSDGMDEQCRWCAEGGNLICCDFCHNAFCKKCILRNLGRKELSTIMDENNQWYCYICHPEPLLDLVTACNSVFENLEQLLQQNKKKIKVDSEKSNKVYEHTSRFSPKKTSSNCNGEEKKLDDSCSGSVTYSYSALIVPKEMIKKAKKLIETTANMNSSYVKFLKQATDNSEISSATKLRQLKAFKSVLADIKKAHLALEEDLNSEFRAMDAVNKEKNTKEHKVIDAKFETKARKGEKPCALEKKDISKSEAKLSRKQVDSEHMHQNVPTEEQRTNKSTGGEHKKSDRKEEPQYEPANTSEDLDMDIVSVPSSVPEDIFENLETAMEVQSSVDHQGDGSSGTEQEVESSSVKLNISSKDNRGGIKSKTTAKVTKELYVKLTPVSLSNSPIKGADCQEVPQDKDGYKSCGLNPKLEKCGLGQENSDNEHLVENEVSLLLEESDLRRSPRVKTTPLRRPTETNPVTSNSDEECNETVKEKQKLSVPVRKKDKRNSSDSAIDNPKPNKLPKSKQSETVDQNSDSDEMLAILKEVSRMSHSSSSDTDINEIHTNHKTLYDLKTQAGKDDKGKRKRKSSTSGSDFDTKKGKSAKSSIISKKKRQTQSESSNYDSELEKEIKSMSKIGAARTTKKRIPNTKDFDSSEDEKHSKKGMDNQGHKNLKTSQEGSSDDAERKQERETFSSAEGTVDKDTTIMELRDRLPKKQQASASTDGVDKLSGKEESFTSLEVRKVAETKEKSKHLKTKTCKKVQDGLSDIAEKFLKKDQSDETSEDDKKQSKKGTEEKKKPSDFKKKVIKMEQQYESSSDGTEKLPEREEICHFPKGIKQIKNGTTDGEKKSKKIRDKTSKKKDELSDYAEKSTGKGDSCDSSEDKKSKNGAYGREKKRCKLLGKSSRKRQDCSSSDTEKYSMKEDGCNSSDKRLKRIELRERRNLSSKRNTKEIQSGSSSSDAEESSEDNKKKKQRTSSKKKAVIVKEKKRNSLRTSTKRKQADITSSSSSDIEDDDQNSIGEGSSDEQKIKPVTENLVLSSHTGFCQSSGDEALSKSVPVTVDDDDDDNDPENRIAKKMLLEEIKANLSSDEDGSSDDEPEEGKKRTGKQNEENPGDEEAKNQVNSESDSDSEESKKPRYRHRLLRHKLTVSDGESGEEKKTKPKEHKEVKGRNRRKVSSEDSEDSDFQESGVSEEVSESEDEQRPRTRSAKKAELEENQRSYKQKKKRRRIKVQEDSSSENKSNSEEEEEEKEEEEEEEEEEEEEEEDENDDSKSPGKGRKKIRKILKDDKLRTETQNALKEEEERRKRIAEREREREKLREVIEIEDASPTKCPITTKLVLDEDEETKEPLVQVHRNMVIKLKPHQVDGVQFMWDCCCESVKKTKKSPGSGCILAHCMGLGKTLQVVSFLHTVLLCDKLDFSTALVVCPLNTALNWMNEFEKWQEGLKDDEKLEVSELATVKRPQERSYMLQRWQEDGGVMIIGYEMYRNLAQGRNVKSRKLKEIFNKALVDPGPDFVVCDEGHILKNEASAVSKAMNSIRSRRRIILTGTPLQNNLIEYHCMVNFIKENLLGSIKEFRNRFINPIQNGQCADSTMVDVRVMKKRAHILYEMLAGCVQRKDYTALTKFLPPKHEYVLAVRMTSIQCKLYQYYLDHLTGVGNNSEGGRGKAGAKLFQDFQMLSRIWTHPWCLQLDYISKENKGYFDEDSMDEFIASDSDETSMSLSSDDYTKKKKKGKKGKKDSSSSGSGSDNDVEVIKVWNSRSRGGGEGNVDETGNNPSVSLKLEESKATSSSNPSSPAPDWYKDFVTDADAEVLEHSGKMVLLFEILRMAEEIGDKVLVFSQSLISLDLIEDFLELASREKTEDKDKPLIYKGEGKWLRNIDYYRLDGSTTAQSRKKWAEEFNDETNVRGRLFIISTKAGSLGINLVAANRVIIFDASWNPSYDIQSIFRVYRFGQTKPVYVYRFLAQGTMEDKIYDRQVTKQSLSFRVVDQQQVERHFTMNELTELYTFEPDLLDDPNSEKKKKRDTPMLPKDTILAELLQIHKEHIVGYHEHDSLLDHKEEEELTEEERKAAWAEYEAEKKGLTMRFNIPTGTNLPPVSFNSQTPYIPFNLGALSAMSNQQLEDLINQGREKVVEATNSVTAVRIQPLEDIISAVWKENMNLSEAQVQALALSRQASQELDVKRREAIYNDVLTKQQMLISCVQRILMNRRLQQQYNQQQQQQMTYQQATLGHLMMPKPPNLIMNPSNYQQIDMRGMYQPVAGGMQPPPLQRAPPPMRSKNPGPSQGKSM
UniProt Q9BXK5, 86-110: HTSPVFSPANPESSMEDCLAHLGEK
UniProt O14965: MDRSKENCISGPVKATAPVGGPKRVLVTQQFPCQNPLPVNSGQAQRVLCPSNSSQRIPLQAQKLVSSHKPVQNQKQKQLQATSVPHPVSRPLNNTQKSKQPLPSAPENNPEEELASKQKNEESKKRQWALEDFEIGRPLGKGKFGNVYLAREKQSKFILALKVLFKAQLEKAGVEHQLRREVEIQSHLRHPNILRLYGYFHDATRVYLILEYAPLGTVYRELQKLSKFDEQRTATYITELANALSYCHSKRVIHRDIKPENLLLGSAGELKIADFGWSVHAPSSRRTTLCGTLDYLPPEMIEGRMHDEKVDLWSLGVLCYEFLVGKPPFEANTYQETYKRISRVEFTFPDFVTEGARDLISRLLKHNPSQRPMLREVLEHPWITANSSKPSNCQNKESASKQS
UniProt A6H8Y1: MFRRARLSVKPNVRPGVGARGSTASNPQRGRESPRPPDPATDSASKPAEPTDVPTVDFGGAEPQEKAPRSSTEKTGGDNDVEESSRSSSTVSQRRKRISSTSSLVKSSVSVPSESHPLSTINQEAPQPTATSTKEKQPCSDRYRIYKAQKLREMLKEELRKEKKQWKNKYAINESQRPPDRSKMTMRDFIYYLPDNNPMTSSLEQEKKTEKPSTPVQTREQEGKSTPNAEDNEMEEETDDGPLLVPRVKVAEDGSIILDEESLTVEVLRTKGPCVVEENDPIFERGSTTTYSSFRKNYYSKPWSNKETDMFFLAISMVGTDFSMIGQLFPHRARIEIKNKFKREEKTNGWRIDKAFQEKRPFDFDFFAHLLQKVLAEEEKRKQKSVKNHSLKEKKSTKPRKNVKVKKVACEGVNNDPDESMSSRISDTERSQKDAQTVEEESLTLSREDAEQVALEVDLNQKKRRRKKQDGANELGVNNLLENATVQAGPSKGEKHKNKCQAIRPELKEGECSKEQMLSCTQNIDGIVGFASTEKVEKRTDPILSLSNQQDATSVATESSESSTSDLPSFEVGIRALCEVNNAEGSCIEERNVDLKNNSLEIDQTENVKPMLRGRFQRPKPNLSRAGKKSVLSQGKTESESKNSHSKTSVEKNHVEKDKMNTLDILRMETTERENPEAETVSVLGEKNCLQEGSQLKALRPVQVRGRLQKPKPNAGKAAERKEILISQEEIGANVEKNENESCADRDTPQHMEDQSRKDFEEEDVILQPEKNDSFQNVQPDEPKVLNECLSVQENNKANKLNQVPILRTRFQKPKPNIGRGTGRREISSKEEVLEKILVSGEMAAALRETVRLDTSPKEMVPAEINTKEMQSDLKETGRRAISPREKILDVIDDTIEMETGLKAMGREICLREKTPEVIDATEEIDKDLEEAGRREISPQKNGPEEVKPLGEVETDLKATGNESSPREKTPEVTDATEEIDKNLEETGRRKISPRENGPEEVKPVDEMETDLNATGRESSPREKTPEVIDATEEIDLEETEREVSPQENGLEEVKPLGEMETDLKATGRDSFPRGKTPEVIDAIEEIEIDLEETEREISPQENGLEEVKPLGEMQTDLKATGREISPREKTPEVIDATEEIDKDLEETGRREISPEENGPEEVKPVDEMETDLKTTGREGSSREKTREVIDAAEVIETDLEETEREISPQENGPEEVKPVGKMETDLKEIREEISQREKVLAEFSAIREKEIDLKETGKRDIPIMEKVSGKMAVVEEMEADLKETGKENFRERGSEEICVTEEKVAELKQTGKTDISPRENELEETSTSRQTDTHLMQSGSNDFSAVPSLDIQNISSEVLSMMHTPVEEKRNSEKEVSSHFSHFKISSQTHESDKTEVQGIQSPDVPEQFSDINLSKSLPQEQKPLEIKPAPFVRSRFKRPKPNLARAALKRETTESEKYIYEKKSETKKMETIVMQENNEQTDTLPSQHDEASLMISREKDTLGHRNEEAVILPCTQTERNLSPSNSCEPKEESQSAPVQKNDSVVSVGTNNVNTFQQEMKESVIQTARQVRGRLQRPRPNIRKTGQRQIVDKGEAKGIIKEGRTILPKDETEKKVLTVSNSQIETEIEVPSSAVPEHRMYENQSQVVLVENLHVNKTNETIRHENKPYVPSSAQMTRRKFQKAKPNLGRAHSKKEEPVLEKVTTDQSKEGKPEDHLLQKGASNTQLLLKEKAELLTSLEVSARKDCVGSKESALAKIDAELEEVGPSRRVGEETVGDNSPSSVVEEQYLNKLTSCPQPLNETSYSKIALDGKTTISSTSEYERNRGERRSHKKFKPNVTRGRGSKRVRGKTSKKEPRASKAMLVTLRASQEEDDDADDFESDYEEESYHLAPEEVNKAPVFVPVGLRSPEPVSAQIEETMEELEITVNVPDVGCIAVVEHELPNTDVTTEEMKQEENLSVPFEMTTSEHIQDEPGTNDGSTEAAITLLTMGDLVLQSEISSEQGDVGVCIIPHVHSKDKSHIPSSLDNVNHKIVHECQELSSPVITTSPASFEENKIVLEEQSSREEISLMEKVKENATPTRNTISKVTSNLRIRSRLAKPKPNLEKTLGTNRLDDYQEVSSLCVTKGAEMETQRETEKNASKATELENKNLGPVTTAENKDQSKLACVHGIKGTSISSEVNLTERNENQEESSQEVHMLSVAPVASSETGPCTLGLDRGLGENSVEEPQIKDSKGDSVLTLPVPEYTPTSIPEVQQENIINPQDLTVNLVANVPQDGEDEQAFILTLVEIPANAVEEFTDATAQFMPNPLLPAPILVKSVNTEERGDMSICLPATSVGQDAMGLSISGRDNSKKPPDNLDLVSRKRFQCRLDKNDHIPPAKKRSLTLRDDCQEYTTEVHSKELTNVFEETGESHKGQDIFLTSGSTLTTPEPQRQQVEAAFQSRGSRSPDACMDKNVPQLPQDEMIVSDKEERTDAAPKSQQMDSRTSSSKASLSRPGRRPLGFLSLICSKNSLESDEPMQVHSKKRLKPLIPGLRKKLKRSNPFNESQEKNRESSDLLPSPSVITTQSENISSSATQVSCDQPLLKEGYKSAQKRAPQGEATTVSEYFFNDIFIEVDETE
UniProt Q9NQS1: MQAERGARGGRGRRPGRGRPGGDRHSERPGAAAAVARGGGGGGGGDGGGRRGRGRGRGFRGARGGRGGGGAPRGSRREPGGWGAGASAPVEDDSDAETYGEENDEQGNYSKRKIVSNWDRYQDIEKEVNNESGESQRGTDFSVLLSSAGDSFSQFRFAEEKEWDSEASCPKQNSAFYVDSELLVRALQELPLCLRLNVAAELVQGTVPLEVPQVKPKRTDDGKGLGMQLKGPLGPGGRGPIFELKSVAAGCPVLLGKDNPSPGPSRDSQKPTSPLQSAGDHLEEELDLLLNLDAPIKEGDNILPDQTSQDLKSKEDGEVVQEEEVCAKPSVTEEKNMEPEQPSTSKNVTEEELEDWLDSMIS
UniProt Q9NVI7: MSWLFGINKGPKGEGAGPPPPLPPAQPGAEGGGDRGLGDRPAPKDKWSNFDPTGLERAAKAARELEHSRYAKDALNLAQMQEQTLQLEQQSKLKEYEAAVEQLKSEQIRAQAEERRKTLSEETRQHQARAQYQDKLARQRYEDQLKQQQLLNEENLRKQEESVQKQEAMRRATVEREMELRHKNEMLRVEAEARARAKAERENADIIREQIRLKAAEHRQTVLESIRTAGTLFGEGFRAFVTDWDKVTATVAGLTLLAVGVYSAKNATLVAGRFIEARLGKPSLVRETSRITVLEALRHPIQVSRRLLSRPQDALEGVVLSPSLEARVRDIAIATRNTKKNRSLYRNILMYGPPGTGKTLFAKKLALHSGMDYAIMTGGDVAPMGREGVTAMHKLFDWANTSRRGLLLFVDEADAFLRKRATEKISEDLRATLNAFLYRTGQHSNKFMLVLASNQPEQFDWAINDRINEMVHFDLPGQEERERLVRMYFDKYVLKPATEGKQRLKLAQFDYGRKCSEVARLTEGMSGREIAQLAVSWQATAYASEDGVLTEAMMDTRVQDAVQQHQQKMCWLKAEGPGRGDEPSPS

The record followed here is the supplement of paper PMC11732987, “Enantioselective OTUD7B fragment discovery through chemoproteomics screening and high-throughput optimisation” (Communications Chemistry, 2025).

Compound in assay [1]: ClCC(=O)N[C@@H]1CCCc2ccccc12
In words: log2 mean competition ratio of IA-DTB cysteine labelling (DMSO/compound) (log2 ratio); higher = stronger cysteine engagement by compound. To be noted: treatment time: 4 h, cell line lysate: HEK293T. The protocol: (§1)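 IA-DTB competitive cysteine chemoproteomics in HEK293T RIPA lysate. Lysates were treated with compound 29 or 30 at 50 or 200 µM for 4 h, then IA-DTB (500 µM, 1 h), trypsin-digested, NeutrAvidin-enriched and analysed by diaPASEF. Competition ratio = intensity DMSO / intensity compound (n=4 treated, n=64 DMSO); binding: mean log2 CR ≥ 1 and p ≤ 0.05 plus QC filters. Target is the cysteine site.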

Compound in assay [2]: ClCC(=O)N[C@H]1CCCc2ccccc12
Described as above. To be noted: treatment time: 4 h, cell line lysate: HEK293T. The protocol: as §1

ATRX C1718 (UniProt P46100): the “log2 mean competition ratio” value in assay [1] (50 µM) was 0.0065; in assay [1] (200 µM), 0.23; in assay [2] (50 µM), -0.433; in assay [2] (200 µM), -0.104.
Regarding ATP11C C200, the “log2 mean competition ratio” value in assay [1] (50 µM) is -0.237; in assay [1] (200 µM) it was -0.161; in assay [2] (50 µM), -0.324; in assay [2] (200 µM) it was -0.215.
For BCL2L13 C103 (UniProt Q9BXK5), the “log2 mean competition ratio” value in assay [1] (50 µM) was -0.118; in assay [1] (200 µM), 0.208; in assay [2] (50 µM), -0.192; in assay [2] (200 µM) it was -0.21.
For BLVRA C204 the same measures were -0.251, -0.0875, -0.0663 and -0.0969.
Turning to BACH1 C224 (UniProt O14867), the “log2 mean competition ratio” value is 0.0104 in assay [1] (50 µM), 0.114 in assay [1] (200 µM), -0.0479 in assay [2] (50 µM) and 0.0666 in assay [2] (200 µM).
The like results for AURKA C8 (UniProt O14965) were, in that order, 0.0584, -0.0514, 0.133 and 0.261.
For BIRC6 C1236 the same measures were -0.0635, 0.168, -0.481 and 0.117.
Regarding BDP1 C2394 (UniProt A6H8Y1), the “log2 mean competition ratio” value in assay [1] (50 µM) is -0.274; in assay [1] (200 µM) it was -0.0681; in assay [2] (50 µM) it was -0.184; in assay [2] (200 µM), -0.0836.
For BCOR C1080 (UniProt Q6W2J9) the same measures were -0.105, -0.0696, -0.0195 and 0.0805.
The like results for AVEN C193 (UniProt Q9NQS1) were, in that order, 0.538, -0.00819, 0.446 and 0.124.
For ATAD3A C563 (UniProt Q9NVI7) the same measures were 0.376, 0.0205, 0.169 and -0.0878.
